pIC50: −log10 of the molar value. At least one compound was matched to its structure with a doubt left. Some results were stated once for a whole list of compounds, not compound by compound.
Legend:
LuCaP35CR xenografts = assay: LuCaP35CR patient derived xenograft (PDX) mice model; conditions: castrate mice bearing LuCaP35CR xenografts, 175 mg/kg
C4-2 cells = assay: Cell proliferation / growth inhibition in CRPC C4-2 cells; format: cell-based, human
Procedure: To identify initial lead(s), we first tested all ten drugs in vitro in human prostate cancer LNCaP and CRPC C4-2 cells to see their growth inhibition effect.
We assessed anti-cancer activity of the synthetic molecules in prostate cancer cell lines as well as toxicity of the active molecules in normal human cell line.
The LNCaP, C4-2 & RWPE-1 cell lines were provided by Professor Timothy Ratliff (Purdue University Center for Cancer Research, USA). All these cells were and maintained at 37° C. with 5% CO2 atmosphere in a humidified incubator following American Type Culture Collection (ATCC) protocol. […]
The cell proliferation experiment was carried out by the ‘Cell Titer-Blue Cell Viability Assay,’ In this assay, approximately 5,000 cells/well were seeded in 100 μL growth media in poly-L-lysine coated 96-well plates. […] 10 μL ‘Cell Titer-Blue Reagent’ was added directly to each well after 6 days and the plates were incubated for 3 h at 37° C. to allow cells to convert resazurin to resorufin, and the fluorescent signal was measured at 590 nm using a multiplate ELISA reader (Bio-Tek Synergy HT plate reader, Bio-Tek, Winooski, Vt.). The percentage of viable cells in a compound-treated sample was calculated by considering the absorbance of the DMSO-growth media treated sample as 100%. Data was analysed and IC50 value was calculated using GraphPad Prism Software. […]

`C[C@]12CC[C@H](O)CC1=CC[C@@H]1[C@@H]2CC[C@]2(C)C(c3cccnc3)=CC[C@@H]12` [ABI, abiraterone, reference compound] was tested, and the tumor growth (LuCaP35CR xenografts) was “did not show any significant effects on tumor growth”.
`C[C@]12CC[C@@H]3[C@@H](CCC4=CC(=O)CC[C@@H]43)[C@H]1CC[C@]2(O)C#Cc1ccncc1` [Compound 20] gave a pIC50 (C4-2 cells) greater than 7.00.

From US20220169672A1, “COMPOUNDS FOR TARGETED THERAPIES OF CASTRATION RESISTANT PROSTATE CANCER” (Purdue Research Foundation, priority 2019, published 2022)
